The name of at least one read-out is uncertain.
What was measured:
MV4-11 AML cell line = test: Compound dose response assay (trypan blue % viability) and CompuSyn combination analysis, MV4-11; type: cell-based, human; details: single agent, % viability normalized to vehicle, 48 or 72 hours post treatment
Method: (§1) The AML cell lines Molm-13 and MV4-11 were obtained from DSMZ. The cells were maintained in culture using RPMI-1640 containing 10% heat-inactivated serum at 37° C./5% CO2. For all experiments, unless otherwise specified, the above-mentioned culture conditions were used. The BCL-2 inhibitors venetoclax (ABT-199) and navitoclax (ABT-263) were purchased from Chemietek. The Axl inhibitor 3-(5-(cyclopropylmethyl)-1,3,4-oxadiazol-2-yl)-5-(1-(piperidin-4-yl)-1H-pyrazol-4-yl)pyridin-2-amine (Compound A) was synthesized according to the method disclosed in WO2015/081257.
(§2) The AML cells Molm-13 and MV4-11 were plated at 5×10^4 cells/mL in 24-well plates and dosed the following day using single or combination of drugs with vehicle (DMSO) only controls. Each cell treatment was conducted in duplicates. Cells were collected 48- or 72-hours post drug treatment, mixed 1:1 with trypan blue and counted manually using a hemocytometer. A total of 100 cells (at the least) were counted for each sample. The % viability was calculated and normalized to vehicle treated controls. Individual IC50 of each compound was determined in each cell line using increasing doses. Four doses less than the IC50 for each compound for each cell line were chosen to conduct the combination studies. The IC50 values were calculated using Prism Version 5.01. CompuSyn software Version 1.0 was used to calculate the combination indices. […]

Molm-13 AML cell line = test: Compound dose response assay (trypan blue % viability) and CompuSyn combination analysis, Molm-13; type: cell-based, human; details: single agent, % viability normalized to vehicle, 48 or 72 hours post treatment
Method: as §1, §2

SMILES | IC50 (MV4-11 AML cell line) [nM] | IC50 (Molm-13 AML cell line) [nM]
CC1(C)CCC(CN2CCN(c3ccc(C(=O)NS(=O)(=O)c4ccc(NCC5CCOCC5)c([N+](=O)[O-])c4)c(Oc4cnc5[nH]ccc5c4)c3)CC2)=C(c2ccc(Cl)cc2)C1 [ABT-199, Venetoclax] | 20.5 | 55.9
CC1(C)CCC(c2ccc(Cl)cc2)=C(CN2CCN(c3ccc(C(=O)NS(=O)(=O)c4ccc(N[C@H](CCN5CCOCC5)CSc5ccccc5)c(S(=O)(=O)C(F)(F)F)c4)cc3)CC2)C1 [ABT-263, Navitoclax] | 93.5 | 

Source: patent publication US12097194B2, “Combination therapy for treating blood cancer” (SIGNALCHEM LIFESCIENCES CORPORATION, priority 2018, dated 2024)
